These are yes or no findings as the source states them, for the method shown. Some results given as binding are weak or reduced against the parent protein; the word gives no strength.
Target: human VEGF (Peprotech), isoform not stated (human) (UniProt P15692)
Experiment: ELISA with metabolized medium of P. pastoris; positive = at least 4 times the negative controls

Sequences of proteins named here, by UniProt entry; tags and fusion partners are left off. A change or cut given only in a name is not applied to a line headed by its entry. A line that says so, or that is headed by a name, gives the form on record, which may keep a tag or linker.
human VEGF (Peprotech), isoform not stated (P15692, form named): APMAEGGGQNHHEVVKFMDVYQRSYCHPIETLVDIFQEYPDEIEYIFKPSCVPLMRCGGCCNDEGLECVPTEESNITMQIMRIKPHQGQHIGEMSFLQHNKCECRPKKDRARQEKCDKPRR

binding: binds
B1: scFv 2H1-Pp17 (scFv)
scFv: QQVQLVQSGAEVKKPGESLKISCKGSGYSFTSYWIGWVRQMPGKGLEWMGIIYPGDSDTRYSPSFQGQVTISADKSISTAYLQWSSLKASDTAMYYCARLVVRDTEIWGQGTMVTVSSAPQAKSSGSGSESKVDQAVVTQEPSLTVSPGGTVTLTCASSIGAVTSGNYPNWFQQRPGQPPRALIYSTSNKHSWTPARFSGSLLGGKAALTLSGAQPEDEAEYYCLLSYSGARPVFGGGTKLTVLGAAAGSEQKLISEEDLNSHHHHHH
